In PubChem BioAssay AID2685 (National Center for Advancing Translational Sciences (NCATS), 2010):
This is one part of the list. Further columns of the screen follow, without active or inactive calls. Most of these compounds were active or inconclusive in the main read-out, so they are no random draw. The note in brackets gives the kind of curve behind each potency; many fits are weak.

Assay: qHTS Assay for Lipid Storage Modulators in Drosophila S3 Cells;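 on cell number change: cells counted by Cell Tracker Red CMTPX staining in the red channel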
Details: BODIPY lipid droplet fluorescence, 18-24 h; for cell number change: measured here: cell count max response, cells fed with added oleic acid
Procedure, shortened: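 Drosophila S3 cells loaded with oleic acid (400 uM, as added) and compounds at several concentrations; lipid droplets imaged by 488-nm laser-scanning cytometry, 500–530 nm intensity and object ratio to cell channel. Percent activity normalized to 20 uM Triacsin C.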

[1] = measured here: lipid fluorescence (Fed channel) AC50, cells fed with added oleic acid
[2] = measured here: cell number channel AC50, cells fed with added oleic acid

| Structure (SMILES) | cell number change [%] | AC50 [1] | AC50 [2] |
| --- | --- | --- | --- |
| CN(C(=O)CCc1nc2ccccc2c(=O)[nH]1)C1CCS(=O)(=O)C1 (centres undefined) | -13.6 | 0.0731 µM [rising, full curve, poor fit] |  |
| CC1=C(/C=C/C(=O)O)C(C)(C)CCC1 | -5.49 | 25.9 µM [falling, partial curve] |  |
| CCN(CC)Cc1ccc(OC)c(Cl)c1 | -11 | 0.103 µM [falling, full curve] |  |
| CCOc1ccccc1N1CCN(S(=O)(=O)c2ccc3c4c(cccc24)C(=O)N3)CC1 | -17.4 | 4.11 µM [rising, single point] |  |
| CCn1c(C)c(C)c2cc(C(=O)NC3CCCCCC3)ccc21 | -10.7 | 29.1 µM [falling, single point] |  |
| Cc1ccc(S(=O)(=O)Oc2ccccc2N2C(=O)C3CC=CCC3C2=O)cc1 (centres undefined) | 13.4 |  |  |
| O=S(=O)(c1cccs1)N1CCC2(CC1)OCCN2S(=O)(=O)c1ccccc1 | -7.69 | 10.3 µM [rising, partial curve] |  |
| O=C(CCCCCn1c(=O)[nH]c2ccsc2c1=O)NCc1cccs1 |  | 5.8 µM [falling, partial curve] |  |
| O=C(O)c1sc2ncccc2c1OCc1ccccc1 | 15 | 5.8 µM [falling, single point] |  |
| CCOc1ccc(N2CC(C(=O)Nc3ccccc3F)CC2=O)cc1 (centres undefined) | 36.3 | 6.51 µM [rising, single point] | 25.9 µM [rising, single point] |
| COC(=O)c1ccc(CNC(=O)CCc2c[nH]c3ccccc23)cc1 | 8.56 | 18.4 µM [rising, partial curve, poor fit] |  |
| COc1cccc(CN(C)C(=O)C2CCN(S(=O)(=O)c3ccc(C)cc3)CC2)c1OC | -1.55 | 0.146 µM [falling, full curve, poor fit] |  |
| CC(c1ccc(F)cc1)n1c(-c2cccs2)n[nH]c1=S (centres undefined) | 85 |  |  |
| Cc1cccc(Cn2c(C)c(C)c3cc(C(=O)NCCN4CCOCC4)ccc32)c1 | 17.7 |  |  |
| COc1ccc(OC)c(C(=O)c2nc3c(n2O)CCCCC3)c1 | -29.5 | 6.51 µM [falling, single point] | 0.291 µM [falling, full curve, poor fit] |
| COc1ccc(/C(N)=N/OC(=O)CSc2ccccc2)cc1OC | 3.78 | 1.64 µM [rising, full curve] | 2.31 µM [rising, partial curve] |
| Cc1ccc([N+](=O)[O-])cc1N/C=C/C(=O)c1ccco1 |  | 4.61 µM [falling, partial curve] |  |
| CCOC(=O)c1csc(NC(C)=O)n1 | -32.8 | 2.59 µM [falling, full curve] | 2.91 µM [falling, full curve] |
| C/C(=N\NC(=O)Cc1ccccc1)c1ccc(Cl)s1 | 23 |  |  |
| COc1ccc(C(=O)Oc2ccc(F)cc2C(=O)/C=C/c2ccc(OC)c(OC)c2)cc1 | 6.09 | 29.1 µM [falling, single point] |  |
| CCC(Oc1ccccc1OC)C(=O)Nc1ccc2c(c1)OCO2 (centres undefined) | -1.32 |  |  |

| Structure (SMILES) | cell number change [%] | AC50 [1] | AC50 [2] |
| --- | --- | --- | --- |
| CCc1cc(=O)oc2cc(C)cc(OCC(=O)NCc3cccnc3)c12 | -14.2 | 6.51 µM [falling, single point] |  |
| COC(=O)c1cc(NC(=S)Nc2cc(Cl)cc(Cl)c2)cc(C(=O)OC)c1 | -36.6 | 2.06 µM [rising, single point] | 29.1 µM [falling, single point] |
| CC(=O)Nc1cccc(-c2nnc(-c3ccccc3)o2)c1 |  | 0.231 µM [rising, full curve] | 2.31 µM [rising, partial curve] |
| Cc1cc(C)nc(Nc2n[nH]c(-c3ccc(N)cc3)n2)n1 | 23.5 | 1.64 µM [rising, partial curve] | 0.461 µM [rising, full curve, poor fit] |
| CCC(c1nnnn1C1CCCCC1)N1CCN(C(=O)c2ccco2)CC1 (centres undefined) | 21.8 | 6.51 µM [falling, single point] |  |
| CCC(C)C(Nc1ccc(C(=O)OC)cc1[N+](=O)[O-])C(=O)OC (centres undefined) | -17.2 | 6.51 µM [rising, single point] |  |
| CCc1ccc(N2CC(C(=O)Nc3ccc(S(=O)(=O)Nc4nccs4)cc3)CC2=O)cc1 (centres undefined) | -18.4 | 5.62 µM [falling, single point] |  |
| CCn1c(SCC(=O)N(C)C2CCCCC2)nc2cc(S(N)(=O)=O)ccc21 | -9.33 |  |  |
| O=C(CSc1nnc(Cc2ccccc2)o1)c1ccc(F)cc1 | 9.82 |  |  |
| O=C(O)c1cccc(Sc2cc(Cl)ccc2C(=O)O)c1 | -32.3 | 25.9 µM [falling, single point] |  |
| CN(C)CCOC(=O)c1ccc2[nH]c3c(c2c1)CSCC3 | 15.3 | 11.6 µM [rising, single point] |  |
| N#Cc1nc(COc2ccccc2F)oc1NCc1ccc(F)cc1 | -6.49 |  |  |
| CC(=O)c1ccc(N2CCN(c3ncccn3)CC2)c([N+](=O)[O-])c1 | -17.6 |  |  |
| CC(=O)c1ccc(OCC(=O)NC(=O)NC2CCCCC2)cc1 | -34.3 | 29.1 µM [falling, single point] | 29.1 µM [falling, single point] |
| C=CCNc1nc(Cl)nc(Nc2ccc(OC)cc2)n1 | 17.2 |  |  |
| Cc1ccc(NC(=O)CN2C(=S)NC(C)(C)CC2C)cc1Cl (centres undefined) |  | 2.06 µM [rising, partial curve] | 6.51 µM [rising, single point] |
| CC1(C)NC(=O)N(CCOc2ccc([N+](=O)[O-])cc2)C1=O | 11.6 | 8.91 µM [rising, partial curve, poor fit] |  |
| N#CC(C#N)=Cc1cc2ccccc2nc1N1CCCCC1 | -17.9 |  |  |
| COc1ccccc1Nc1cc(C)nc2c(C)ccc([N+](=O)[O-])c12 | -62.5 | 23.1 µM [falling, single point] | 25.9 µM [falling, single point] |
| O=C1COc2ccc(S(=O)(=O)NCCc3ccc(Cl)cc3)cc2N1 | 11.8 | 4.47 µM [rising, partial curve, poor fit] |  |
| Cc1ccccc1CCN1CCCC(CN(C)CC(C)(C)C)C1 (centres undefined) | 15 | 0.0731 µM [rising, full curve, poor fit] |  |

| Structure (SMILES) | cell number change [%] | AC50 [1] | AC50 [2] |
| --- | --- | --- | --- |
| CCNS(=O)(=O)c1ccc(CCC(=O)Nc2ccc3c(c2)OCO3)cc1 | -28 | 0.58 µM [falling, single point] |  |
| O=C(Nc1ccc(-n2cnnn2)cc1)c1cccc(S(=O)(=O)N2CCCC2)c1 | -14.9 | 16.4 µM [rising, single point] |  |
| Cc1ccccc1NC(=O)c1sc(Cl)nc1-c1ccccc1 | 6.64 |  | 2.59 µM [rising, partial curve] |
| O=C(NC(=S)NNC(=O)c1ccccc1O)c1ccccc1 | 10.6 | 29.1 µM [falling, single point] |  |
| COc1ccc(C2NC(=O)NC(C)=C2C(=O)OCc2ccccc2)cc1 (centres undefined) | -22.3 |  |  |
| O=C1N(c2ccccc2)CCN1c1ccccc1 | 10.9 | 2.31 µM [rising, partial curve, poor fit] |  |
| CCCC(=O)N(c1ccc2oc(=O)sc2c1)S(=O)(=O)c1ccccc1 | 6.43 | 0.461 µM [falling, partial curve, poor fit] | 0.13 µM [falling, full curve, poor fit] |
| O=C(/C=C/c1ccccc1)NCCSCc1ccc(Cl)cc1 | -1.22 | 4.11 µM [falling, partial curve, poor fit] | 6.51 µM [rising, single point] |
| CCCCCC(=O)Nc1cc(S(=O)(=O)N2CCOCC2)ccc1N1CCCC1 | -7.73 |  |  |
| CC(=O)c1ccc2c(c1)OCCOCCOCCO2 | -15.4 |  |  |
| CC(Sc1nnc(-c2cccs2)n1Cc1ccccc1)C(=O)NCc1ccc2c(c1)OCO2 (centres undefined) | 153 |  | 29.1 µM [rising, single point] |
| O=c1c2nnn(Cc3ccccc3)c2ncn1C/C=C/c1ccccc1 |  |  | 0.291 µM [rising, single point] |
| O=C(CCC(=O)N1CCN(S(=O)(=O)c2ccc(Cl)cc2)CC1)NCc1ccccc1 |  |  | 0.259 µM [falling, full curve, poor fit] |
| COc1cc2nc(N3CCN(C(=O)C4COc5ccccc5O4)CC3)nc(N)c2cc1OC (centres undefined) | -35.2 | 0.231 µM [rising, full curve] | 18.4 µM [falling, single point] |
| C/C(Cl)=C\Cn1c(O)c(N=O)c2ccccc21 | -34.5 | 0.164 µM [falling, full curve] | 7.31 µM [falling, partial curve] |
| CC(C)n1c(NCc2cc(Cl)ccc2O)nc2ccccc21 | -51.5 | 29.1 µM [falling, single point] | 23.1 µM [falling, single point] |
| COc1cc(C=O)ccc1OCCOCCOc1ccc(Cl)cc1 | 89.5 | 16.4 µM [rising, partial curve] | 5.8 µM [rising, partial curve] |
| Cc1ccc(C)c(NC(=S)N(CCN(C)C)C(C)c2ccccn2)c1 (centres undefined) | -19.3 | 6.51 µM [falling, partial curve, poor fit] |  |
| CN(Cc1ccccc1)S(=O)(=O)CCNC(=O)c1ccc2c(c1)OCO2 | -8.87 |  |  |
| CCC(=O)NC(c1cccs1)c1cc([N+](=O)[O-])c2cccnc2c1OC (centres undefined) | 41.3 |  | 23.1 µM [rising, single point] |

4 entries from above, tab-delimited.
Structure (SMILES)	cell number change [%]	AC50 [1]	AC50 [2]
O=C(CCC(=O)N1CCN(S(=O)(=O)c2ccc(Cl)cc2)CC1)NCc1ccccc1			0.259 µM [falling, full curve, poor fit]
COc1cc2nc(N3CCN(C(=O)C4COc5ccccc5O4)CC3)nc(N)c2cc1OC (centres undefined)	-35.2	0.231 µM [rising, full curve]	18.4 µM [falling, single point]
C/C(Cl)=C\Cn1c(O)c(N=O)c2ccccc21	-34.5	0.164 µM [falling, full curve]	7.31 µM [falling, partial curve]
CC(C)n1c(NCc2cc(Cl)ccc2O)nc2ccccc21	-51.5	29.1 µM [falling, single point]	23.1 µM [falling, single point]
